# Experimental data published in patent US20030040605A1.
# The chains behind the UniProt entries cited, without tags or fusion partners. Residues count along the entry.
# UniProt Q02161, residues 2-417: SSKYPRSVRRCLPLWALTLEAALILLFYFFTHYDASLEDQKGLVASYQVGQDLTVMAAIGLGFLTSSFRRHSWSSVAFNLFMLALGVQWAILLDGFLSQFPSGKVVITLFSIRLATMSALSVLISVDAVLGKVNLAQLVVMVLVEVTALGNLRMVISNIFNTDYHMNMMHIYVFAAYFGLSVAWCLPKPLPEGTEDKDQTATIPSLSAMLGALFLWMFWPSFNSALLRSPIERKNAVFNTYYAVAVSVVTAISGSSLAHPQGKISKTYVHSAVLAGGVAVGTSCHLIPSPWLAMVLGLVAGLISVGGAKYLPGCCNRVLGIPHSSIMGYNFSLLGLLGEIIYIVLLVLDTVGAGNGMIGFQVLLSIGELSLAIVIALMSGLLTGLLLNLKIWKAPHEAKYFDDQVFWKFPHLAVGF
# No constants are given. Whether binding was seen depends on the method and setting. Some results given as binding are weak or reduced against the parent protein; the word gives no strength.
# Molecular target: human Rh(D) antigen (human) (UniProt Q02161)
# Experiment: indirect agglutination (anti-M13), Fab/phage
row,Binder,binding
1,"SH44 (Fab, V domains shown) VH: EVQLLESGGGVAQPGRSLRLSCVASGFSLRSYGMHWVRQAPGKGLEWVADIWFDGSNKDYADSVKGRFTISRDNSKNTLYLQMNSLRAEDTAVYYCARDWRVRAFSSGWLSAFDIWGQGTMVTVSS VL: AELTQSPSSLSASVGDRVIITCRASQTIPRFLNWYQQKPGKAPVLLIHSISSLQSGVPSRFSASGSGTEFTLTISSLQPEDFATYYCQQSYSNLSFGPGTTVDIRR",binds
2,"SH46 (Fab, V domains shown) VH: VQLLEESGGGVVQPGRSLRLSCAASGFTFSSYGMHWVRQAPGRGLEWVALIWYDGGNKEYADSVKGRFSISRDNSKNTLYLQVNSLRADDTAVYYCARDQRAAAGIFYYSRMDVWGQGTTVTVSS VL: AELTQSPSSLSASVGDRVTITCRASQYISSYLNWYQQKPGKAPNLLIYAASSLQSGVPSRFSGSGSGTDFTLTISSLQPEDFATYYCQQTYSSPSTFGPGTKVDIKR",binds
3,"SH24 (Fab, V domains shown) VH: EVQLLESGGGVAQPGRSLRLSCVASGFSLRSYGMHWVRQAPGKGLEWVADIWFDGSNKDYADSVKGRFTISRDNSKNTLYLQMNSLRAEDTAVYYCARDWRVRAFSSGWLSAFDIWGQGTMVTVSS VL: AELTQSPSSLSASVGDRVTITCRASQSISTYLNWYQQRPGKAPNLLIYAASTLQRGVPSRFTGSGSGTDFTLTISSLQPEDFATYYCQQSYTTLWTFGQGTKMEIRR",binds
4,"SH32 (Fab, V domains shown) VH: EVQLLESGGGVVQPGRSLRLSCEASKFTLYNYGMHWVRQAPGKGLEWVAFIWFDGSNKYYEDSVKGRFTVSRDNSKNTLYLQMNSLRAEDTAVYYCARELSKKVALSRYYYYMDVWGQGTTVTVSS VL: AELTQEPSLTVSPGGTVTLTCASSTGAVTSRYFPNWFQQKPGQAPRALIYGSNNKHSWTPARFSGSLLGGKAALTLSGVQPEDEAEYYCLLFYAGAWAFGGGTKLTVL",binds
5,"SH34 (Fab, V domains shown) VH: EVQLLESGGGVVQPGRSLRLSCAASGFSFSSYGMHWVRQAPGKGLEWVAVISYDGTNKYFADSVKGRFTISRDNSKKTLYLQMTSLRPEDTAVYFCANLRGEVTRRASVPLDIWGQGTMVTVSS VL: AELTQSPSSLSASVGDRVTITCRASQSISSYLNWYQQKPGKAPKLLIYAASGLQSGVPSRFSGSGSGTDFTLTISSLQPEDFATYYCQQSYSTPPYTFGQGTKLEIKR",binds
6,"SH48 (Fab, V domains shown) VH: EVQLLESGGGVVQPGRSLRLSCAASGFSFSSYGMHWVRQAPGKGLEWVAVISYDGTNKYFADSVKGRFTISRDNSKKTLYLQMTSLRPEDTAVYFCANLRGEVTRRASVPLDIWGQGTMVTVSS VL: AELTQSPSSLSASVGDRVTITCRASQYISSYLNWYQQKPGKAPNLLIYAASSLQSGVPSRFSGSGSGTDFTLTISSLQPEDFATYYCQQTYSSPSTFGPGTKVDIKR",binds

# Molecular target: human Rh(D) antigen (human) (UniProt Q02161)
# Experiment: indirect agglutination (anti-M13), Fab/phage; footnote: weak
row,Binder,binding
1,"SH44 (Fab, V domains shown) VH: EVQLLESGGGVAQPGRSLRLSCVASGFSLRSYGMHWVRQAPGKGLEWVADIWFDGSNKDYADSVKGRFTISRDNSKNTLYLQMNSLRAEDTAVYYCARDWRVRAFSSGWLSAFDIWGQGTMVTVSS VL: AELTQSPSSLSASVGDRVIITCRASQTIPRFLNWYQQKPGKAPVLLIHSISSLQSGVPSRFSASGSGTEFTLTISSLQPEDFATYYCQQSYSNLSFGPGTTVDIRR",binds
